Reference: paper PMC6242839 (Nature Communications, 2018)

Legend:
[1] = compound 50 μM, MLVs POPE/Soy:PE 3:1, control 35.3 ± 0.6 °C
[2] = for change in π of preformed POPE monolayer: monolayer at ~ 25 mN m^−1, compound 0.2 µM; for maximum values of Δπ: preformed POPE monolayers at π ~ 25 mN m^−1, 0.1 then 0.2 µM, n = 3

Row | Compound | lamellar to hexagonal phase transition temperature (TH) of the PE binary mixture [1] [°C] | drop in surface pressure π to attain the same A/lipid (compression isotherm) ([2]; POPE monolayer after injection of compound, 0.2 µM) [mN m^−1] | change in π of preformed POPE monolayer [2] [mN m^−1] | maximum values of Δπ [2] [mN m^−1]
1 | CCCCCCCCCCCCO[C@H]1C[C@H](O)[C@@H](O)[C@H](C)O1 [Compound 1] | 32.2 ± 0.8 | ≤ 15 | ~3 | 2.61 ± 0.25
2 | CCCCCCCCCCCCO[C@@H]1C[C@@H](O)[C@H](O)[C@@H](CO)O1 [Compound 13] | 35.2 ± 1.1 |  | < 0.5 | 0.15 ± 0.06
